Consider 38 targets from the supplement of paper PMC7666118.

Chains of the proteins cited; added tags and fusions are not shown. Lines headed by an entry give the natural chain unless they say otherwise; changes in a name come on top.
UniProt P82909: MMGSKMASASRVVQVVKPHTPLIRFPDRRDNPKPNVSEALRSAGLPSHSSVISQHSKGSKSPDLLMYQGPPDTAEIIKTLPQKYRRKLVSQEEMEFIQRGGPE
UniProt P51956: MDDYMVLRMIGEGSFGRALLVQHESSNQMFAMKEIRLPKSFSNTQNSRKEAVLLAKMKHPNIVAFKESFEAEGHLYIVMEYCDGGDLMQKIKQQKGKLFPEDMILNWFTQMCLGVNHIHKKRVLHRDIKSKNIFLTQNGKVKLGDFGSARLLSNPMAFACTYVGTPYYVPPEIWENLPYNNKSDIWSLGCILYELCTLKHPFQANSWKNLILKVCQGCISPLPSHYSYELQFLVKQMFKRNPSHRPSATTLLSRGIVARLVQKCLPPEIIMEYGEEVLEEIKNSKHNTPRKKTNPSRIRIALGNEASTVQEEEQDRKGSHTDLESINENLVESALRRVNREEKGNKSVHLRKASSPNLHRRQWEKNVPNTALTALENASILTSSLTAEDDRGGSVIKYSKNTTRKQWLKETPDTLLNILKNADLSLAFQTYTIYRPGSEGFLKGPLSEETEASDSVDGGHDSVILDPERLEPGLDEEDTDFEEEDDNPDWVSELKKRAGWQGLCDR
UniProt Q86Y39, whole entry: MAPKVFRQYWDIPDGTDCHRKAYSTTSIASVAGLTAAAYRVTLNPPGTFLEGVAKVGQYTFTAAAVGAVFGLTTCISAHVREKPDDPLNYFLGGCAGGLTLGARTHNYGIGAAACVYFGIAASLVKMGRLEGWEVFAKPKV
UniProt Q9Y314: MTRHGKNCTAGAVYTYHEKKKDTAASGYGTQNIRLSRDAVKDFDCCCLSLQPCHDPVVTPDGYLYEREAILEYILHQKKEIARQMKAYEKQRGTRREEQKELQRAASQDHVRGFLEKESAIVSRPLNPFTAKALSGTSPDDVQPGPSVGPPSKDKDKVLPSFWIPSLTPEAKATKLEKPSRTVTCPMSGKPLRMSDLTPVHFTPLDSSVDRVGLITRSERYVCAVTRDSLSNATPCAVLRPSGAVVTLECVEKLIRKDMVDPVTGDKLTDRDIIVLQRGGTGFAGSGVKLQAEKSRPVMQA
UniProt Q9Y2Z2: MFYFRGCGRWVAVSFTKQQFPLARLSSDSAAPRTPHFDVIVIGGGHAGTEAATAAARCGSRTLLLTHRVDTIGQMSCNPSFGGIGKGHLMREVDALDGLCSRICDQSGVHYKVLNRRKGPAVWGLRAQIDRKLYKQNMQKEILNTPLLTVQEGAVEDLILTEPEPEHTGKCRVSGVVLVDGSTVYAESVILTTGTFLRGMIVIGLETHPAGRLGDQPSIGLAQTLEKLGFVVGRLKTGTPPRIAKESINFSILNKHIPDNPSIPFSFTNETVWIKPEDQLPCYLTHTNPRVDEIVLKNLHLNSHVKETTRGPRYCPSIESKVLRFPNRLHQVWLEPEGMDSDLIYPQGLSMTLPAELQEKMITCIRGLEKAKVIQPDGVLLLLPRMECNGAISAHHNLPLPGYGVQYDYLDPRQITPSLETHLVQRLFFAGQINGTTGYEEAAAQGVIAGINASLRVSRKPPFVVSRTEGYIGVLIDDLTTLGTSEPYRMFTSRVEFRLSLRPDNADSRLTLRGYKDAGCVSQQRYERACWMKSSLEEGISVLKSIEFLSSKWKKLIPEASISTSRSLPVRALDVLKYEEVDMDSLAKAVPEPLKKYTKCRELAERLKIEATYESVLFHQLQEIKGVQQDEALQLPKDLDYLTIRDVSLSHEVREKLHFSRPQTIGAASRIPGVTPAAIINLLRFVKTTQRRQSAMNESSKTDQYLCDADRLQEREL
UniProt Q9UI09, whole entry: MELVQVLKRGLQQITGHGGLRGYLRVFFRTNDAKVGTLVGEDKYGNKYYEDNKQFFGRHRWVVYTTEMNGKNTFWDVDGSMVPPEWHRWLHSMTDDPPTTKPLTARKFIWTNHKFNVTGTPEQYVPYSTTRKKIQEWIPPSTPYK
UniProt P43246, whole entry: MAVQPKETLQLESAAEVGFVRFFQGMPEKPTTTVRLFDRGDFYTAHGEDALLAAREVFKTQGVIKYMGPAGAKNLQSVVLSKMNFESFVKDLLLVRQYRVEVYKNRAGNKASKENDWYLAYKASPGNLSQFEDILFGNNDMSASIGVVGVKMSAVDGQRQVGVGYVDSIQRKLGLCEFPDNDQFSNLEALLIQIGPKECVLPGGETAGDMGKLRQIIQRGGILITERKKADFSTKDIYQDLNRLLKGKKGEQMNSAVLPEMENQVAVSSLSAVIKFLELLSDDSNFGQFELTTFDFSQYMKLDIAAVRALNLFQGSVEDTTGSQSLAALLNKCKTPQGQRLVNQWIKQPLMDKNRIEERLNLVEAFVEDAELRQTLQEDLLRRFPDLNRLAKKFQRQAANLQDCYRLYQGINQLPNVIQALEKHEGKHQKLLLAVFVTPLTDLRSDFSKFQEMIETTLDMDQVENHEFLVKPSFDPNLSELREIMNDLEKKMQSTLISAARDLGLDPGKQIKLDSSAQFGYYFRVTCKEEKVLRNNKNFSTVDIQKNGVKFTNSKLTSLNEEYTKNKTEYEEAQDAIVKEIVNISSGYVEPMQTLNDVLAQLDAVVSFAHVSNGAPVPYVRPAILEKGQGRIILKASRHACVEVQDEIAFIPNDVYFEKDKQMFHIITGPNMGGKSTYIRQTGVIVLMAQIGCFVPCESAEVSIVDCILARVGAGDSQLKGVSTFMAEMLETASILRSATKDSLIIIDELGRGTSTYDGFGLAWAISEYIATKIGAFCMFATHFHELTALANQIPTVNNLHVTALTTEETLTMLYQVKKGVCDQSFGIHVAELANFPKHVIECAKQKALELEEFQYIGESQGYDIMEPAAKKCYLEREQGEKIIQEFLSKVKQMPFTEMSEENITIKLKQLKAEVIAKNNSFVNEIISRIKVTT
UniProt Q96MG7: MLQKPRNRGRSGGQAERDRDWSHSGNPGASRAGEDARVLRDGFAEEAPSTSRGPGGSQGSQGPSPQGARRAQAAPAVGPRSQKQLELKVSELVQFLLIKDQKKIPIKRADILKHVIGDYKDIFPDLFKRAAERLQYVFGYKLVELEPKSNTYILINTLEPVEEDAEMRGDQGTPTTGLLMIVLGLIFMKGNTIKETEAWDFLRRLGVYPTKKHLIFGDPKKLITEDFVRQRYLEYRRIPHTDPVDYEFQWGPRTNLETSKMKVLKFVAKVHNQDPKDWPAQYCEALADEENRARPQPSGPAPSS
UniProt Q9H2K0, whole entry: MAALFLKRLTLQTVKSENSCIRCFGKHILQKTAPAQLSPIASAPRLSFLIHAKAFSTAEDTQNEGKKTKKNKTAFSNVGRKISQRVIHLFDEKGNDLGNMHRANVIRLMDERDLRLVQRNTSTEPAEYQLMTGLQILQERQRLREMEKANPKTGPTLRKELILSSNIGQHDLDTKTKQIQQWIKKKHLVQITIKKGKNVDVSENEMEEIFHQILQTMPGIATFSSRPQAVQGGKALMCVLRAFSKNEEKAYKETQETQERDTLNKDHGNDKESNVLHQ
UniProt Q99417: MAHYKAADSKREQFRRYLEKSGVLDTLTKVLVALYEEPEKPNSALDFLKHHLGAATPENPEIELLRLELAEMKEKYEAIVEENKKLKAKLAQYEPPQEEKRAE
UniProt P19404, whole entry: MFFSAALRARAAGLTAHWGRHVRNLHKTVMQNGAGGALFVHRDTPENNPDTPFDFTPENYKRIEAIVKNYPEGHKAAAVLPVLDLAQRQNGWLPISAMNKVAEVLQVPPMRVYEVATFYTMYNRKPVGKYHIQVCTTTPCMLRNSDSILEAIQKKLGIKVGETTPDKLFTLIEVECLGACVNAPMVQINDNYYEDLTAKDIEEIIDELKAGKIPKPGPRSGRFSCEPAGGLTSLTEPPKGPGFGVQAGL
UniProt Q96H55, whole entry: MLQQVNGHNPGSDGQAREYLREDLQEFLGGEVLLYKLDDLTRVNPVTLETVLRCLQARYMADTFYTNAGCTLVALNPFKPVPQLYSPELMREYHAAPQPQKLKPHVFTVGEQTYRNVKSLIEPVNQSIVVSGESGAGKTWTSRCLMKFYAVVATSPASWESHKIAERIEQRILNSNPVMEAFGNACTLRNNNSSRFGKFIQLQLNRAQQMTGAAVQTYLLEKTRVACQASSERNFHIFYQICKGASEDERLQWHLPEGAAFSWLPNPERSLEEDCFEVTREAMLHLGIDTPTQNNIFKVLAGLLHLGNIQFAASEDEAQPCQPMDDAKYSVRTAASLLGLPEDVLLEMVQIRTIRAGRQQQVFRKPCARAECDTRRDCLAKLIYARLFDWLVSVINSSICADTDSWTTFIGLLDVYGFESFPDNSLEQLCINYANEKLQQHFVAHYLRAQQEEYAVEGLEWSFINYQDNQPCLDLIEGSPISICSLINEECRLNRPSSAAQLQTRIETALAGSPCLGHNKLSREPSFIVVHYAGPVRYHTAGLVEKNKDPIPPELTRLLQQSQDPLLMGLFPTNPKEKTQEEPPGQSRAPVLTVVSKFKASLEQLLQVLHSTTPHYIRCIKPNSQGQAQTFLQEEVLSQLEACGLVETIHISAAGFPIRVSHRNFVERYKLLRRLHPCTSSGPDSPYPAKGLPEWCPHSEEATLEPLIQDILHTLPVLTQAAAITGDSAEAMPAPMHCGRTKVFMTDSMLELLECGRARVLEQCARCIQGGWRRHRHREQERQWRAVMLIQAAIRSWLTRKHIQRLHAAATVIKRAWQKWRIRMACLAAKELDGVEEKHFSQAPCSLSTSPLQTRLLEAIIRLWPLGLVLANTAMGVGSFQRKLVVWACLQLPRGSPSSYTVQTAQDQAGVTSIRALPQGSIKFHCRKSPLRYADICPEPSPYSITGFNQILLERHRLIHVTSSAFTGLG
UniProt Q9NX24: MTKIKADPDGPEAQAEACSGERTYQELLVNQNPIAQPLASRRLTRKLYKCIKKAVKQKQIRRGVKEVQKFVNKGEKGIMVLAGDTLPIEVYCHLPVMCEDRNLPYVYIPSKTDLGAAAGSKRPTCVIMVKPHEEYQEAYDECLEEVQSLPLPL
UniProt P55209: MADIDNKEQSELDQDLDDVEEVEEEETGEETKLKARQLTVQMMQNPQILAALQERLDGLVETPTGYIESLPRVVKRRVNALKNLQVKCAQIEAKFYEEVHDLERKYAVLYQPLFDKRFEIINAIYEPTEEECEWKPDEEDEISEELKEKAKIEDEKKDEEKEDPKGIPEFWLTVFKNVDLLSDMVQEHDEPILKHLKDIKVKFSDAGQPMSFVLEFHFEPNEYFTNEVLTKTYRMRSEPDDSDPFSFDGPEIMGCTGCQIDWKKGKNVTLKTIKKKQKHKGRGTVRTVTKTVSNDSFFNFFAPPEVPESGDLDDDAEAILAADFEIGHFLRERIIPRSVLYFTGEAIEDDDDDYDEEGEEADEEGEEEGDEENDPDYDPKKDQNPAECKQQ
UniProt Q96PY6: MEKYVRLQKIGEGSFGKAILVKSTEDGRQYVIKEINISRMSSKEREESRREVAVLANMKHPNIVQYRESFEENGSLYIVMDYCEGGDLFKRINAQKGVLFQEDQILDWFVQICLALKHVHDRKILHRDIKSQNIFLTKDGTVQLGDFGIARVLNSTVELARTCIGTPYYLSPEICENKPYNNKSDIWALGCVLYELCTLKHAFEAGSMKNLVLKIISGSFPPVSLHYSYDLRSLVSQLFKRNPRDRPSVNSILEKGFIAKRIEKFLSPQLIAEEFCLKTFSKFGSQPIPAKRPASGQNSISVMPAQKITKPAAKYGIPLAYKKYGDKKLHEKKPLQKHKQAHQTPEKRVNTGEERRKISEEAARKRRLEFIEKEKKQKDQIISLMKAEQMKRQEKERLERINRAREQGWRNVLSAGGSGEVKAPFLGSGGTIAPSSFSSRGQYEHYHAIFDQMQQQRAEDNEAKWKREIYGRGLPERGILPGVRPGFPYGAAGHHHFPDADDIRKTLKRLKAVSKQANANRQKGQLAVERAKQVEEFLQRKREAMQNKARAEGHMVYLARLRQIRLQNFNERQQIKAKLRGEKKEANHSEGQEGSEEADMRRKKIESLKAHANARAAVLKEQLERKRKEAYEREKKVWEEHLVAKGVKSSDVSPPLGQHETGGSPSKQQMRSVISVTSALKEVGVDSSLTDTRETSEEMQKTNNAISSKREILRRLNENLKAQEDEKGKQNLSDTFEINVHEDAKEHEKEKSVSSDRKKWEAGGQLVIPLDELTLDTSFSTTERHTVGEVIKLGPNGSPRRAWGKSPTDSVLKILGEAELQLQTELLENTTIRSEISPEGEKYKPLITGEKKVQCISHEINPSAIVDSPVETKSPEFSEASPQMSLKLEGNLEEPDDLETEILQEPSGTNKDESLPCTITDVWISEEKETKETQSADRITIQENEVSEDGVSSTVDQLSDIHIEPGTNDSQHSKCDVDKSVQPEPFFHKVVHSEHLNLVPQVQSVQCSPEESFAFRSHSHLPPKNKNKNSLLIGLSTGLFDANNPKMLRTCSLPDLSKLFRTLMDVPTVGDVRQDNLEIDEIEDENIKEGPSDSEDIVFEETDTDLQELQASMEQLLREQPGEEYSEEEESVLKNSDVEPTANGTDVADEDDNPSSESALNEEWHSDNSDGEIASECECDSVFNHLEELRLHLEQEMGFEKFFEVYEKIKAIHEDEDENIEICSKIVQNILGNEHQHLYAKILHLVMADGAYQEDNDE

This is one part of the list.

Compound in this assay: COc1ccc(Cn2ccc3ccc(C(=O)NO)cc32)cc1
Kind of assay: dose-dependent thermal stabilisation call (2D-TPP, DLPTP, 10% FDR) (binary (1 = stabilised)); higher = stabilised by the compound. To be noted: system: HL-60 intact cells; concentration range 0.04-10 µM.
For the target MRPS36 (UniProt P82909), the “dose-dependent thermal stabilisation call” value was inactive: 0.

NEK3 (UniProt P51956): the “dose-dependent thermal stabilisation call” value was inactive: 0. Then NBN (UniProt O60934), with inactive: 0; and NDUFA11 (UniProt Q86Y39), with inactive: 0; and NOSIP (UniProt Q9Y314), with inactive: 0. The same measure for MTO1 (UniProt Q9Y2Z2): inactive: 0; for NDUFA12 (UniProt Q9UI09): inactive: 0; for MSI2 (UniProt Q96DH6): inactive: 0.

Regarding MRPS5 (UniProt P82675), the “dose-dependent thermal stabilisation call” value is inactive: 0. The same measure for NDUFS6 (UniProt O75380): inactive: 0. The same measure for MSH2 (UniProt P43246): inactive: 0; for NDNL2 (UniProt Q96MG7): inactive: 0; for MTA1 (UniProt Q13330): inactive: 0.

N-PAC: the “dose-dependent thermal stabilisation call” value is inactive: 0.

Regarding MSL2 (UniProt Q9HCI7), the “dose-dependent thermal stabilisation call” value was inactive: 0. Then ND1 (UniProt P03886), with inactive: 0; and NACA, with inactive: 0; and MTIF3 (UniProt Q9H2K0), with inactive: 0. For NDUFA8 (UniProt P51970), the “dose-dependent thermal stabilisation call” value was inactive: 0. Then NOL11 (UniProt Q9H8H0), with inactive: 0; and MYCBP (UniProt Q99417), with inactive: 0; and MSN (UniProt P26038), with inactive: 0. Then NOM1 (UniProt Q5C9Z4), with inactive: 0; and NDUFB10 (UniProt O96000), with inactive: 0; and MSRB3 (UniProt Q8IXL7), with inactive: 0. Then NPEPL1 (UniProt Q8NDH3), with inactive: 0; and MRTO4 (UniProt Q9UKD2), with inactive: 0.

Consider NDUFV2 (UniProt P19404), for which the “dose-dependent thermal stabilisation call” value was inactive: 0. Then NCAPH2 (UniProt Q6IBW4), with inactive: 0; and MYO19 (UniProt Q96H55), with inactive: 0. For NME6 (UniProt O75414), the “dose-dependent thermal stabilisation call” value is inactive: 0. The same measure for NHLRC3 (UniProt Q5JS37): inactive: 0; for NHP2 (UniProt Q9NX24): inactive: 0; for NCK2 (UniProt O43639): inactive: 0. Take MRS2 (UniProt Q9HD23): the “dose-dependent thermal stabilisation call” value was inactive: 0. The same measure for MYADM (UniProt Q96S97): inactive: 0. Then NAP1L1 (UniProt P55209), with inactive: 0; and NEK1 (UniProt Q96PY6), with inactive: 0.
